Plain letter strings leave the end groups untold.

Settings in all cases: whole synthesis
Data set [1] in a line: general procedure: Fmoc solid-phase peptide synthesis; Fmoc-Leu-HMP resin; HBTU/HOBt, DIEA.
Data set [2] is described as follows: general procedure: Fmoc solid-phase peptide synthesis; H-His(Trt)-Trt(2-Cl)-resin; HBTU/HOBt, DIEA.
Data set [3] in a line: general procedure: Fmoc solid-phase peptide synthesis; Fmoc-Ala-HMP resin; HBTU/HOBt, DIEA.

Sequence HGHGLALLAHALLAHAAAAL came in with a crude mass in data set [1] of 111.8 mg. For the same sequence, in data set [1] (theoretical value 200.7 mg from resin), the crude yield came to 55.7%.
Sequence HGHGGGGGGGGGAHALLAHAALAH showed a crude mass in data set [2] of 182.9 mg. The crude yield in data set [2] (theoretical value 222.0 mg from resin) is listed as 82.4%.
HHGGLLLLHHHAAAAALLLAAAAA gave a crude mass in data set [3] of 233.4 mg. For the same sequence, the crude yield in data set [3] (theoretical value 242.0 mg from resin) stood at 96.4%.
